PubChem BioAssay AID248 (DTP/NCI, 2004)
The list shows only some results of the screen, not a fair sample: it gathers tests that were run many times, whatever their T/C, doses with no T/C, and many T/C values between a quarter and a half above the control. Further doses and runs are listed elsewhere. T/C gives the treated animals as a percentage of the vehicle group. Some doses have a count of surviving animals in place of a T/C: the source holds a T/C of zero for them, seemingly a mark for toxic or unscored doses. Some doses without a T/C left all or most animals alive at the check, yet need not have been tolerated: the source hardly ever lists a survival T/C far under the control, and the zero likely stands for such cases as well. Counts of survivors are from the toxicity check (mostly the fifth day) where no day follows; animals may have died later. Schedule codes are those of the source, read here as Q, the interval in days (D) or hours (H), X, the number of doses. Some schedule codes hold Z or #, which are not explained here. For survival time, this PubChem deposit counts one and a half times the control or more as active, and values a quarter to a half above the control carry no call in these data; other NCI protocols may use other cut-offs.

System: L1210 leukemia ip in BDF1 mice, survival T/C
Assay: NCI In Vivo Anticancer Drug Screen. Data for tumor model L1210 Leukemia (intraperitoneal) in B6D2F1 (BDF1) mice
Details: T/C endpoint: mean survival time, higher T/C = longer survival
[1] = dose: 400.0 mg/kg/injection, schedule: Q04DX002 (ip), vehicle: saline with Tween-80
[2] = dose: 400.0 mg/kg/injection, schedule: Q04DX003 (ip), vehicle: saline with Tween-80
[3] = dose: 200.0 mg/kg/injection, schedule: Q01DX009 (ip), vehicle: Klucel (hydroxypropylcellulose) (HPC)
[4] = dose: 200.0 mg/kg/injection, schedule: Q01DX001 (ip), vehicle: carboxymethylcellulose (CMC)
[5] = dose: 400.0 mg/kg/injection, schedule: Q01DX001 (ip), vehicle: carboxymethylcellulose (CMC)

With Nc1nc2c(ncn2C2OC(COP(=O)(O)O)C(O)C2O)c(=O)[nH]1 (centres undefined) as the molecule, how does the survivor count (dose: 400.0 mg/kg/injection, schedule: Q01DX009 (ip), vehicle: saline) read?
The survivor count was 6 of 6.

With O=P(O)(Oc1cccc(Cl)c1)Oc1cccc(Cl)c1 as the molecule, how does the survivor count [1] read?
Its survivor count is 2 of 3.

How did the survivor count [2] turn out when CSc1ncc(C#N)c(N)n1 was run?
Its survivor count is 2 of 6.

How did the survivor count (dose: 150.0 mg/kg/injection, schedule: Q01DX001 (ip), vehicle: other) turn out when c1ccc(Cn2ccc3ccncc32)cc1 was run?
The survivor count was 3 of 6.

With N/C(=N\OC(=O)Nc1ccc(Cl)cc1)C(Cl)(Cl)Cl as the molecule, how does the survivor count (dose: 400.0 mg/kg/injection, schedule: Q01DX009 (ip), vehicle: Klucel (hydroxypropylcellulose) (HPC)) read?
The survivor count was 1 of 6.

With O=C1CCCc2c1ccc1ccccc21 as the molecule, how does the survivor count [3] read?
The survivor count was 5 of 6.

With O=[N+]([O-])c1ccc(S(=O)(=O)Oc2ccccc2)cc1 as the molecule, how does the survivor count (dose: 400.0 mg/kg/injection, schedule: Q04DX003 (ip), vehicle: Klucel (hydroxypropylcellulose) (HPC)) read?
The survivor count was 3 of 6.

With CN1CCN(CCN2CCN(CCCN3c4ccccc4Sc4ccc(Cl)cc43)CC2)C1=O as the molecule, how does the survivor count [4] read?
The survivor count was 1 of 6.

And the survivor count [5]?
Its survivor count is 0 of 6.

With CCNCC(=O)Nc1ccccc1C(=O)OCC as the molecule, how does the survivor count (dose: 500.0 mg/kg/injection, schedule: Q01DX Z (ip), vehicle: saline) read?
Its survivor count is 1 of 6.

How did the survivor count (dose: 100.0 mg/kg/injection, schedule: Q01DX001 (ip), vehicle: saline with Tween-80) turn out when CCOC(=O)CSC1=C(N)C(=O)c2ccccc2C1=O was run?
Its survivor count is 1 of 3.

What about the survivor count (dose: 200.0 mg/kg/injection, schedule: Q01DX001 (ip), vehicle: saline with Tween-80) of the same molecule?
Its survivor count is 1 of 3.

What about the survivor count (dose: 400.0 mg/kg/injection, schedule: Q01DX001 (ip), vehicle: saline with Tween-80) of the same molecule?
The survivor count was 0 of 3.

Nc1scc2[nH]c3ccccc3[n+]12 was tested. Which survivor count (dose: 400.0 mg/kg/injection, schedule: Q04DX002 (ip), vehicle: saline) did it give?
Its survivor count is 0 of 3.

How did the survivor count (dose: 50.0 mg/kg/injection, schedule: Q01DX009 (ip), vehicle: saline) turn out when CN(C)CC[CH2][Sn]([CH3])([CH3])[CH3] was run?
The survivor count was 0 of 3.

And the survivor count (dose: 100.0 mg/kg/injection, schedule: Q01DX009 (ip), vehicle: saline)?
The survivor count was 0 of 3.

What about the survivor count (dose: 200.0 mg/kg/injection, schedule: Q01DX009 (ip), vehicle: saline) of the same molecule?
The survivor count was 0 of 3.

What does the source list for N#CCC(=O)NCc1ccco1?
survivor count (dose: 200.0 mg/kg/injection, schedule: Q01DX009 (ip), vehicle: saline with Tween-80): 0 of 3; survivor count [1]: 0 of 3

Cc1ccc(C(=O)CC(Sc2ccccc2N)c2c(Cl)cccc2Cl)c(C)c1 (centres undefined) was tested. Which survivor count (dose: 400.0 mg/kg/injection, schedule: Q01DX005 (ip), vehicle: Klucel (hydroxypropylcellulose) (HPC)) did it give?
The survivor count was 3 of 3.

What does the source list for O=NN(CCF)C(=O)NC1CCSCC1?
survivor count (dose: 81.0 mg/kg/injection, schedule: Q01DX001 (ip), vehicle: other): 5 of 10; survivor count (dose: 121.0 mg/kg/injection, schedule: Q01DX001 (ip), vehicle: other): 2 of 10

C/C(=N/N=C(N)N)c1ccc(/C(C)=N/N=C(N)N)cc1 was tested. Which T/C (dose: 60.0 mg/kg/injection, schedule: Q01DX Z (ip), vehicle: carboxymethylcellulose (CMC)) did it give?
The T/C was 125 % of control.

What about the survivor count (dose: 60.0 mg/kg/injection, schedule: Q01DX Z (ip), vehicle: saline) of the same molecule?
Its survivor count is 5 of 6.

And the survivor count (dose: 120.0 mg/kg/injection, schedule: Q01DX Z (ip), vehicle: saline)?
Its survivor count is 0 of 6.

C/C(=N/N(C)C)c1ccc(Br)cc1 was tested. Which survivor count (dose: 100.0 mg/kg/injection, schedule: Q01DX009 (ip), vehicle: Klucel (hydroxypropylcellulose) (HPC)) did it give?
Its survivor count is 4 of 6.

What about the survivor count [3] of the same molecule?
Its survivor count is 3 of 6.

How did the survivor count (dose: 200.0 mg/kg/injection, schedule: Q01DX001 (ip), vehicle: other) turn out when COc1ccc(/C=N/NC(=O)c2ccco2)cc1OC was run?
Its survivor count is 4 of 4.

With C[n+]1cccc(O)c1 as the molecule, how does the T/C (dose: 100.0 mg/kg/injection, schedule: Q04DX003 (ip), vehicle: saline) read?
The T/C was 128 % of control.

Which survivor count (dose: 400.0 mg/kg/injection, schedule: Q01DX001 (ip), vehicle: saline) does the source give for CN1CCC(CO)CC1 here?
The survivor count was 1 of 4.

How did the survivor count [2] turn out when CCNC(=S)N(CC)CC was run?
The survivor count was 0 of 6.

Which results are given for CC[Si](CC)(CC)c1ccc(CCN2CC2)s1?
survivor count (dose: 100.0 mg/kg/injection, schedule: Q01DX001 (ip), vehicle: carboxymethylcellulose (CMC)): 0 of 4; survivor count [4]: 0 of 4; survivor count [5]: 0 of 4
